Results taken from patent US20240270840A1 (NECTIN THERAPEUTICS, published 2024).
Substitutions are numbered along the chain they refer to. In names and notes the source's numbering stands. No constants are given. Whether binding was seen depends on the method and setting. Some results given as binding are weak or reduced against the parent protein; the word gives no strength.

T1: Human CD112R expressed on cells (human, UniProt Q6DKI7 1-326)
T1 construct: whole, on cells; also called HuCD112R; hCD112R
T1 sequence (looked up): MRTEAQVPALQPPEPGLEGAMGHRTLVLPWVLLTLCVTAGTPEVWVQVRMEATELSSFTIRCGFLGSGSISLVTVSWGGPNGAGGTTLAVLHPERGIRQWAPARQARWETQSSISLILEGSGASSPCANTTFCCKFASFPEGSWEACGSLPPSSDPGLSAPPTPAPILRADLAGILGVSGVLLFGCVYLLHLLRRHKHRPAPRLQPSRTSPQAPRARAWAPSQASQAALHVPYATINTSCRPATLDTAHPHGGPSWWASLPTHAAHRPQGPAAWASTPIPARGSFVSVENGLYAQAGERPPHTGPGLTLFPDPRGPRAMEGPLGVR

B1: chimeric clone-13(N31S)-hIgG1 (VH0K0) (antibody, V domains shown)
VH: QVQLQQPGAELVKPGTSVKLSCKASGYNFTSYWINWVKLRPGQGLEWIGDIYPGSYIPNYNEKFKNKATLTVDTSSSTAYMQLTSLASEDSALYYCAGGYFDVWGAGTTVTVSS
VL: DIVMTQSPSSLSVSAGEKVTMSCKSSQSLLSSGNQKNYLAWYQQKPGQPPKLLIYGASTRESGVPDRFTGSGSGTDFTLTISSVQAEDLAVYYCQNDHSYPYTFGGGTKLEIK
notes: Chimeric, human IgG1; Light chain with N31S (deamidation removal), also denoted N27dS by Kabat numbering; also called clone N31S; VH0Vk0
B2: Clone-13-hIgG1 (antibody, V domains shown)
VH: B1 VH
VL: B1 VL with S31N
notes: Chimeric antibody with human IgG1 constant region; also called chimeric clone (clone 13)

Columns and labels:
[1] = biological target: T1, Human CD112R expressed on cells; assay: flow cytometry on 293T cells overexpressing CD112R, 0.4-99 nM
[2] = biological target: T1, Human CD112R expressed on cells; assay: FACS (APC-H), 293T hCD112R against 293T parental cells, mAb at 66 nM

| Binder | binding [1] | binding [2] |
| --- | --- | --- |
| B1 | binds | binds |
| B2 | binds | binds |
